Data source: PubChem BioAssay AID686943 (Drosophila RNAi Screening Center, 2013)
Aim: 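Knockdowns that increase or decrease active ERK after insulin receptor stimulation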 (primary screen). Cell system: Drosophila S2R+ haemocyte-like cells expressing YFP-tagged ERK (Rolled). Reagents: long dsRNA against Drosophila genes. Challenge: insulin stimulation versus unstimulated cells; dose and duration not given. Detection: 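Antibody staining for doubly phosphorylated ERK divided by ERK-YFP signal, as plate z-scores, in insulin-treated and untreated cells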. Scale: replicate 1, z-score of dpERK with insulin: higher = more active ERK per ERK-YFP after insulin.
In all, the deposit lists about 23,000 reagents; below is a random part of those with a known target gene and a result. 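Extra replicates exist only for a retested subset of genes; insulin dose and duration not given; both raised and lowered dpERK matter.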 The numbers tell different reagents against one gene apart. Names joined by + are all predicted targets of the reagent. Further read-outs or replicates are left out here. The record does not give: the amount of reagent, the time to read-out.

replicate 1, z-score of dpERK with insulin, by target and reagent
sha: #1 0.55
Dys + snoRNA:Me18S-A1374: #1 -0.37
GLS: #1 -0.01
CG8679: #1 0.79
mldr: #1 0.91
gb: #1 -0.04
hig: #1 0.22; #2 0.56; #3 0.99
CG13578: #1 -0.03
Spn42Dd: #1 0.95; #2 0.6
CG13998: #1 -0.04
GCC185: #1 0.08
CG2701: #1 -0.12
CG5323: #1 0.52
bdg: #1 -3.23
Ate1: #1 1.42
Esyt2: #1 -0.24
CG32945: #1 0.02
CG12491 + CG34105: #1 0.97; #2 1.11
Spase22-23: #1 -0.12
CG9813: #1 -0.96
CG1774: #1 0
rempA: #1 -0.28
loco: #1 0.85; #2 0.52
Pfdn5: #1 -0.58
CG1674: #1 0.82; #2 0.27
scrib: #1 -0.32; #2 -1.44; #3 0.86; #4 0.18
CG43077: #1 -1.35
Cdk7: #1 0.98
CG43345 + CG43346: #1 0.77
mof: #1 0.79

Reformatted: results already given.
{"target":"gb","reagent no.":1,"replicate 1, z-score of dpERK with insulin":-0.04}
{"target":"hig","reagent no.":1,"replicate 1, z-score of dpERK with insulin":0.22}
{"target":"hig","reagent no.":2,"replicate 1, z-score of dpERK with insulin":0.56}
